Measured values reported in US10052387B2, “Ceramide reversal of multi-drug resistance” (Memorial Sloan-Kettering Cancer Center, priority 2013, dated 2018).
Some entries share one result that the patent states for a list of compounds. At least one compound was matched to its structure with a doubt left.

Test system: ADX cells
Test: Daunorubicin trafficking into the nucleus of ADX cells (confocal microscopy)
Type: cell-based, Chinese hamster
Conditions: ADX cells loaded with daunorubicin
Method: ADX cells were grown on 4-well slides, 20 uM daunorubicin was added for […], followed by various dose of liposomes containing C16:0 ceramide, sphingomyelin, C16:0 dihydroceramide or phosphatidylcholine for 1 h. Cells were examined under Leica SP-5 inverted confocal microscope. Y axis represents percent of cells with nuclear drug.
ADX cells were grown on 4-well slides. 3.5×10^4 ADX cells were incubated with 20 μM daunorubicin in DMEM HG:F-12 medium without serum. After 2 hours, at which time daunorubicin had reached steady state accumulation in cytoplasmic vesicles, liposomes containing long and very long chain ceramides were added to cells at 0, 1, 2, and 5 μM. After a 1 hour-incubation at 37° C., nuclear localization of daunorubicin was determined by confocal microscopy. Cells were examined under Leica SP-5 inverted confocal microscope. Y axis represents percent of cells with nuclear drug.

## CCCCCCCCCCCCC/C=C/[C@@H](O)[C@H](CO)NC(=O)CCCCCCCCCCCCCCC [C16:0, N-palmitoyl (C16:0) ceramide]
  time over which vesicle trafficking and fusion with the nuclear membrane occurs (videography): 30 to 60 min
